Data on 2 substances can be found in article doi:10.1101/2021.09.29.462476.

Sequences of proteins named here, by UniProt entry; tags and fusion partners are left off.
UniProt Q5T5D7: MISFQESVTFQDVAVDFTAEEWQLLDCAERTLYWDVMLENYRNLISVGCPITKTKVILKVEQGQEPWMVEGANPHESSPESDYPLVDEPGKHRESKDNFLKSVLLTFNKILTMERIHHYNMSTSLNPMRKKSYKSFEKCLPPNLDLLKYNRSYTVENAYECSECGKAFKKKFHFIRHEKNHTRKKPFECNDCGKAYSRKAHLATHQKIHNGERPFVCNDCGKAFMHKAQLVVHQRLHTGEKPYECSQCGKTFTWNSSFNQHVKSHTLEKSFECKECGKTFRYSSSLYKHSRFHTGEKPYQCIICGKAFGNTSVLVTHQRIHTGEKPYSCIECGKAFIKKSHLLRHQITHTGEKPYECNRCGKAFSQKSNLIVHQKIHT
UniProt P11940: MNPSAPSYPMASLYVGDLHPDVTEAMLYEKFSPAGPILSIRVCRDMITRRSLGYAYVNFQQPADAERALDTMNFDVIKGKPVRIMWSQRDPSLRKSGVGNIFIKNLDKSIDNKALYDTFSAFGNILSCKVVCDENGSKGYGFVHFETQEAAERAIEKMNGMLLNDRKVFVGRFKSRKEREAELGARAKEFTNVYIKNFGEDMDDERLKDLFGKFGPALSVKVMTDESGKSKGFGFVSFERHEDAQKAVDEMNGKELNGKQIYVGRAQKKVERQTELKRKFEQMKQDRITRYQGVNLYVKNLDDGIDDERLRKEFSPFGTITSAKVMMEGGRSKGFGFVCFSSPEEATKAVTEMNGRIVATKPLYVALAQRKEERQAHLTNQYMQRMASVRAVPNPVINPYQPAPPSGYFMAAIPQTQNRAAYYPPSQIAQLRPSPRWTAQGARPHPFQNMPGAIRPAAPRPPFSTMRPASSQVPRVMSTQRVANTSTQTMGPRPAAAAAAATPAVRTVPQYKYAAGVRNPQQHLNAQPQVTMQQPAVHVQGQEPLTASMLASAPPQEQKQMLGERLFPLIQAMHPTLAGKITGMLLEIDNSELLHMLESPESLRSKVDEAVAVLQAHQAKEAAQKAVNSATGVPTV

No constants are given. Whether binding was seen depends on the method and setting. In cells and extracts the contact can be indirect. Some binding calls cover weakened binding; strength is not graded here.

One assay has as its target GFP-Znf684 (human) (UniProt Q5T5D7). The assay is described as follows: co-IP.
In assay [1] the target is T1, Nxf1 (human (endogenous in HEK293)) (UniProt Q9UBU9).
T1 sequence: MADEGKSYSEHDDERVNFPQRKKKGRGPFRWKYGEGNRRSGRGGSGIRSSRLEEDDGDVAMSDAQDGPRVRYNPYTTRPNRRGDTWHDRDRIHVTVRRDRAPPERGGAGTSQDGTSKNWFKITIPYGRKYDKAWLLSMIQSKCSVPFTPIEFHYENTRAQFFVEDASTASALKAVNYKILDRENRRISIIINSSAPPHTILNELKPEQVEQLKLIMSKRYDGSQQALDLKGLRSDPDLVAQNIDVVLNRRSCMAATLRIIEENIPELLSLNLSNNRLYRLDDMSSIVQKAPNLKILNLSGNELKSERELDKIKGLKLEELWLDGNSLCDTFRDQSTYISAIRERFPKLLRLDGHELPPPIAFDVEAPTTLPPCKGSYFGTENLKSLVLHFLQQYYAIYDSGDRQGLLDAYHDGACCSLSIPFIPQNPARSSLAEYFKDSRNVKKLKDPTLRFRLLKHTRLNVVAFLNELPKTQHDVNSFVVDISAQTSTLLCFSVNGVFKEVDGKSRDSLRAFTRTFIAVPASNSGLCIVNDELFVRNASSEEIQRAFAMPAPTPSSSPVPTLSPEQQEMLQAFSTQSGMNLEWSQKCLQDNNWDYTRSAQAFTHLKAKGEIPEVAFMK
In words: co-IP.

PABPC1 (from UniProt P11940 1-636): the binding entry with GFP-Znf684 (human) is “binds”.
For the substance GFP-Znf684 (from UniProt Q5T5D7 1-378), in assay [1], the binding entry is listed as “binds”.
